From patent US7214771 come the findings set out here.

By UniProt entry, the sequences of proteins in these tests, tags left out.
UniProt P10644: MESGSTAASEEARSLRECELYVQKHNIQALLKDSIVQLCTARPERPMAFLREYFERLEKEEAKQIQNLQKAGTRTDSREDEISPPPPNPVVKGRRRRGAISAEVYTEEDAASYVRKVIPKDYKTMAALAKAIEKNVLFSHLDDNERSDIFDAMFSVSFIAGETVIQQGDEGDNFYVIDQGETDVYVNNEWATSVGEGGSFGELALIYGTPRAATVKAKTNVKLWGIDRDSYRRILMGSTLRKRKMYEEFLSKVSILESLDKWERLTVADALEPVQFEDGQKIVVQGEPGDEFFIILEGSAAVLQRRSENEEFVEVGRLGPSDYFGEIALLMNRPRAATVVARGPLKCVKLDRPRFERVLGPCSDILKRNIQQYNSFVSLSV

Results are given in words; binding and its absence hold for the method and conditions named. Some entries that bind do so weakly or less than the wild type.

The target of the experiment is GST-RIα fusion protein (wild-type RIα), expressed in E. coli (UniProt P10644). Nature of the experiment: GST pull down of [35S]methionine labeled RIAZ, SDS-PAGE and autoradiography.

B1: RIα-associated zinc finger (RIAZ), in vitro-translated full length protein (protein)
chain: MERVNDASCGPSGCYTYQVSRHSTEMLHNLNQQRKNGGRFCDVLLRVGDESFPAHRAVLAACSEYFESVFSAQLGDGGAADGGPADVGGATAAPGGGAGGSRELEMHTISSKVFGDILDFAYTSRIVVRLESFPELMTAAKFLLMRSVIEICQEVIKQSNVQILVPPARADIMLFRPPGTSDLGFPLDMTNGAALAANSNGIAGSMQPEEEAARAAGAAIAGQASLPVLPGVDRLPMVAGPLSPQLLTSPFPSVASSAPPLTGKRGRGRPRKANLLDSMFGSPGGLREAGILPCGLCGKVFTDANRLRQHEAQHGVTSLQLGYIDLPPPRLGENGLPISEDPDGPRKRSRTRKQVACEICGKIFRDVYHLNRHKLSHSGEKPYSCPVCGLRFKRKDRMSYHVRSHDGSVGKPYICQSCGKGFSRPDHLNGHIKQVHTSERPHKCQTCNASFATRDRLRSHLACHEDKVPCQVCGKYLRAAYMADHLKKHSEGPSNFCSICNREGQKCSHQDPIESSDSYGDLSDASDLKTPEKQSANGSFSCDMAVPKNKMESDGEKKYPCPECGSFFRSKSYLNKHIQKVHVRALGGPLGDLGPALGSPFSPQQNMSLLESFGFQIVQSAFASSLVDPEVDQQPMGPEGK
modifications: [35S]methionine labeled
Regarding B1, the binding result is reported as “binds”.
